Measurements published in article PMC5742151.
Where two headings read alike, the source gives them in different places. Results are given in words; binding and its absence hold for the method and conditions named. Binding seen in cells or lysates may run through a third protein. Some results given as binding are weak or reduced against the parent protein; the word gives no strength.

The chains behind the UniProt entries cited, without tags or fusion partners.
UniProt E9PZQ0: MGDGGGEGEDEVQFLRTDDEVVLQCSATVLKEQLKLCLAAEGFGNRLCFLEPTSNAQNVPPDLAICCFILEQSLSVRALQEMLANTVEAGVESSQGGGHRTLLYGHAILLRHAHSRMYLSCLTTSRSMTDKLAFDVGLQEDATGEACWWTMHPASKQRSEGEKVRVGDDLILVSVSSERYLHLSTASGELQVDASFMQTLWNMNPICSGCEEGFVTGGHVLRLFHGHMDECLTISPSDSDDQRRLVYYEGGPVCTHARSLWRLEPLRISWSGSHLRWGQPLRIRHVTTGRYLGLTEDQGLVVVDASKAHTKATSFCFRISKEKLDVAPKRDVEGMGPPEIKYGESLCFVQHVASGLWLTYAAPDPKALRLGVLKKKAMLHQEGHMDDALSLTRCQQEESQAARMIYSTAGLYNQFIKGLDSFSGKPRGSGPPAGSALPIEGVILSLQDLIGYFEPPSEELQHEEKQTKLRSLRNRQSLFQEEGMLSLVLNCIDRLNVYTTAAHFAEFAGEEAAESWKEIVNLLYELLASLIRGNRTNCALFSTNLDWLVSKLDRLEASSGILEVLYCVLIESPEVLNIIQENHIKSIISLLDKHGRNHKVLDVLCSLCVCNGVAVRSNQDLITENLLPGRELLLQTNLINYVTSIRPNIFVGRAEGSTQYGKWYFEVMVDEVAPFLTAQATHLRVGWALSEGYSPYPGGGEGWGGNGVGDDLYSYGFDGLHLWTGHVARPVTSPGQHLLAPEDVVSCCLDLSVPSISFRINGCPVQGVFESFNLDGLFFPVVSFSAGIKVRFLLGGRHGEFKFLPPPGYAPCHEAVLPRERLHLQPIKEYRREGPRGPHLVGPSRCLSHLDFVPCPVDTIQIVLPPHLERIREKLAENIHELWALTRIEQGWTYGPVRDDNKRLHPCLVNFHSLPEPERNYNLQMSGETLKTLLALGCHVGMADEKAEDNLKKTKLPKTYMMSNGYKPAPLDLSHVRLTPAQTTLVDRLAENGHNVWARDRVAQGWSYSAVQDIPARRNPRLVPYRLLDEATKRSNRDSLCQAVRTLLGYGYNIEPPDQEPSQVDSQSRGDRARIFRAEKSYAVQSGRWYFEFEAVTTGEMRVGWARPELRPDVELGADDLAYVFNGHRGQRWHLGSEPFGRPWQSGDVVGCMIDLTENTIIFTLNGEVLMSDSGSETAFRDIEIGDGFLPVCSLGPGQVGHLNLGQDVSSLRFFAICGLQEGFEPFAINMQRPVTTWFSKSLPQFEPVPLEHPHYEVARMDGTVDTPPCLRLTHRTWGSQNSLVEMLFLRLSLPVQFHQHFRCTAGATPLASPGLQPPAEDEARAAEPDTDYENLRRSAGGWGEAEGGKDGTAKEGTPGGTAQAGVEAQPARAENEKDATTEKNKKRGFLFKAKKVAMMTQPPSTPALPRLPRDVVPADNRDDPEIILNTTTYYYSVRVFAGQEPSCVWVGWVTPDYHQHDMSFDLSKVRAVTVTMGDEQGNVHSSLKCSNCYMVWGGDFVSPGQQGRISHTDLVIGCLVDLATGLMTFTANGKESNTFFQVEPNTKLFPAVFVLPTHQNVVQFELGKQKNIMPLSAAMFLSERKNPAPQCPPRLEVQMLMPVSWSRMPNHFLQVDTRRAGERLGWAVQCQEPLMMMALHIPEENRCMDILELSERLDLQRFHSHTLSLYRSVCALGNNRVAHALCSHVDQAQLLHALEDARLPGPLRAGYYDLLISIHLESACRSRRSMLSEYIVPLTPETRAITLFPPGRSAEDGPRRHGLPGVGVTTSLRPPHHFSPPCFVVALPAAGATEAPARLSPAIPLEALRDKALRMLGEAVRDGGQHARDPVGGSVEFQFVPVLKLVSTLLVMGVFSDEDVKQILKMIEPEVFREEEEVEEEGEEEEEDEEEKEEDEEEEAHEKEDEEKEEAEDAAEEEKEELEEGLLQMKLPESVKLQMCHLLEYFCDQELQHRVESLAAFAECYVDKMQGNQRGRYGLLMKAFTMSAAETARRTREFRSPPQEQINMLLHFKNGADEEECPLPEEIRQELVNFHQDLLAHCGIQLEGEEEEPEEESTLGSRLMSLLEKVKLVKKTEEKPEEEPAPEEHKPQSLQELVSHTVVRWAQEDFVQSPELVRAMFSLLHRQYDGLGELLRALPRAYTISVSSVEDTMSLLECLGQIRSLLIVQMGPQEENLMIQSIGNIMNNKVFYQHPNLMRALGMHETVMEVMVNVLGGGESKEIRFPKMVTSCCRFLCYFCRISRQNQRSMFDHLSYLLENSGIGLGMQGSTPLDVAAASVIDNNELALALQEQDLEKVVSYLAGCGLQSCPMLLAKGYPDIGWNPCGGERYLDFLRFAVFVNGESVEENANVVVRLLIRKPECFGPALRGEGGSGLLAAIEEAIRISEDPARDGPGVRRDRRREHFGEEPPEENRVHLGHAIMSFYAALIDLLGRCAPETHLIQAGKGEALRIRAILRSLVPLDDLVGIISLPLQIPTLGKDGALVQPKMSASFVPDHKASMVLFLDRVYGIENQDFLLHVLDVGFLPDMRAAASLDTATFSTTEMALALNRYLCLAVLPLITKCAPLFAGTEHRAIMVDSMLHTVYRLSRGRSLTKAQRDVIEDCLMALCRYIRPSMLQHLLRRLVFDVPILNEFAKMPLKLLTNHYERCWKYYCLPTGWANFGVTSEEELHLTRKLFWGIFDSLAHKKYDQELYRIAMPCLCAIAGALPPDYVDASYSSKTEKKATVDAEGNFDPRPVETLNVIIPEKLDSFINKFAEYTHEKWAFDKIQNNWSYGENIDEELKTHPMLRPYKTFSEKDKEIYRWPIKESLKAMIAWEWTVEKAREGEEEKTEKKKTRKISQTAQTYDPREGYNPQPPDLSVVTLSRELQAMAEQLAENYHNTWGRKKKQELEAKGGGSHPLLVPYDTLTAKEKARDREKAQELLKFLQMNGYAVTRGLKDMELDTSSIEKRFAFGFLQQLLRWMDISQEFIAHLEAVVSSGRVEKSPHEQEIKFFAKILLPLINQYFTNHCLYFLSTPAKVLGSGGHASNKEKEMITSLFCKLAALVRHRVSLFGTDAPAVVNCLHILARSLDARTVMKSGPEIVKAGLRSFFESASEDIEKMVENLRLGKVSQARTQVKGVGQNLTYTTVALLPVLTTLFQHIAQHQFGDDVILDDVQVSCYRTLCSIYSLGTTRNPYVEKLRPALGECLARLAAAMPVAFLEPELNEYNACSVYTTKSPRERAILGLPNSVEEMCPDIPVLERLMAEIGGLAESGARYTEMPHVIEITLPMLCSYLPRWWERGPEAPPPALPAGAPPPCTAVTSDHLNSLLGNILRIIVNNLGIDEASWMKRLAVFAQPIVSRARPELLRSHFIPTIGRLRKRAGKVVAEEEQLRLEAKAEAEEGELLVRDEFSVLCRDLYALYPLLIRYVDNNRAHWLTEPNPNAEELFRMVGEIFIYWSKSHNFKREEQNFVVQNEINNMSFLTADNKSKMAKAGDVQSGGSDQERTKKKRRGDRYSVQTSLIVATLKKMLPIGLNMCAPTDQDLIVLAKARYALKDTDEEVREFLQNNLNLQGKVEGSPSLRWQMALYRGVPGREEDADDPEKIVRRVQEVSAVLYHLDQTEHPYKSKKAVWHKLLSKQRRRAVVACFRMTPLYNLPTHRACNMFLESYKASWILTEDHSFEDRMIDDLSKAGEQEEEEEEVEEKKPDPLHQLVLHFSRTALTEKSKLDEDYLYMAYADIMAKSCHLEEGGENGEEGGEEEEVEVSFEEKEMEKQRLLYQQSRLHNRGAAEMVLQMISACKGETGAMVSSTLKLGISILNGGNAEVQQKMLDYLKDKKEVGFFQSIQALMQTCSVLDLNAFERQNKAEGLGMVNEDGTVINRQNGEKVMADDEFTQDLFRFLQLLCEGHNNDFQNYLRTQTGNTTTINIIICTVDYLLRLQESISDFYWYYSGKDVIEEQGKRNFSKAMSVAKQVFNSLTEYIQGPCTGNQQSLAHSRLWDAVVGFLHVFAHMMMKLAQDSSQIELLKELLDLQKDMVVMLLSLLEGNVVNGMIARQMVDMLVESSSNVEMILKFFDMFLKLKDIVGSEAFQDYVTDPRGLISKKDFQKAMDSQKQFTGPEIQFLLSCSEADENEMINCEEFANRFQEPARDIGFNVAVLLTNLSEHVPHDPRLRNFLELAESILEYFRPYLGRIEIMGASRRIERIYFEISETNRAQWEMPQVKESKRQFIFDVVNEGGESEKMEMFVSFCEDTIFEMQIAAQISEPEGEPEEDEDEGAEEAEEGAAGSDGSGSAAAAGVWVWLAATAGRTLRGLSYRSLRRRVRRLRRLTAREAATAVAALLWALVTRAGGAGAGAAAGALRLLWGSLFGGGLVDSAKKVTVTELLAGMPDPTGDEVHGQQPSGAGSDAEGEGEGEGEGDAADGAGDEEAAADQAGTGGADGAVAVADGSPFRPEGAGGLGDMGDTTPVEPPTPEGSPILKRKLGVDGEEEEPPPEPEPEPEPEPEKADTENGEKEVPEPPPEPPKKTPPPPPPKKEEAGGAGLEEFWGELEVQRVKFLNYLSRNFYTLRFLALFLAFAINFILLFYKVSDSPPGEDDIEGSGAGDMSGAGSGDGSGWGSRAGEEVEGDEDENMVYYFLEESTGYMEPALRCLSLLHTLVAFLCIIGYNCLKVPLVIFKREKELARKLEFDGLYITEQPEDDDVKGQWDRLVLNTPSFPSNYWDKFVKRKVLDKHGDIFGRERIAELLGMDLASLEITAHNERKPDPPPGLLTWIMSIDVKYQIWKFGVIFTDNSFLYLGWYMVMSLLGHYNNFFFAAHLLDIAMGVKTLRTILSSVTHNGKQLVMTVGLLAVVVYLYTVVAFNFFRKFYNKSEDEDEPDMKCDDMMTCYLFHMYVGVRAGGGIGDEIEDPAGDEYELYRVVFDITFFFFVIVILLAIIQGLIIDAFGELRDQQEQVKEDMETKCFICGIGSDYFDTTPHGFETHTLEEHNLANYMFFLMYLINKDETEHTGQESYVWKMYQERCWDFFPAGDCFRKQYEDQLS
UniProt P26883: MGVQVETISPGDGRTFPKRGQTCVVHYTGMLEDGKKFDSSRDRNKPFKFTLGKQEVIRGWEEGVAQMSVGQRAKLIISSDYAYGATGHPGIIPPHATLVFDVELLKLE

Experiments:
[1] = molecular target: ryanodine receptor calcium (Ca2+) release channel (RyR1) (mouse (endogenous in Balb/c EDL muscle)) (UniProt E9PZQ0); experiment: co-IP; RyR1 immunoprecipitated (anti-RyR1 5029) from EDL muscle of non-tumor control mice and of mice with 4T1 OCIB (4 weeks after inoculation); immunoblots for calstabin and Nox4, quantified on the Odyssey system; procedure as in ref. 9
[2] = molecular target: ryanodine receptor calcium (Ca2+) release channel (RyR1) (mouse (endogenous in Balb/c EDL muscle)) (UniProt E9PZQ0); experiment: as above; remark: listed apart in the source

| binding [1] | binding [2] | Molecule |
| --- | --- | --- |
| binds | – | calstabin1 (also known as FKBP12) (from UniProt P26883 1-108) |
| – | binds | NADPH oxidase 4 (Nox4) (enzyme, UniProt Q9JHI8 1-578) MAVSWRSWLANEGVKHLCLLIWLSLNVLLFWKTFLLYNQGPEYYYIHQMLGLGLCLSRASASVLNLNCSLILLPMCRTVLAYLRGSQKVPSRRTRRLLDKSKTLHITCGVTICIFSGVHVAAHLVNALNFSVNYSEDFLELNAARYQNEDPRKLLFTTIPGLTGVCMVVVLFLMVTASTYAIRVSNYDIFWYTHNLFFVFYMLLLLHVSGGLLKYQTNVDTHPPGCISLNQTSSQNMSIPDYVSEHFHGSLPRGFSKLEDRYQKTLVKICLEEPKFQAHFPQTWIWISGPLCLYCAERLYRCIRSNKPVTIISVINHPSDVMELRMIKENFKARPGQYIILHCPSVSALENHPFTLTMCPTETKATFGVHFKVVGDWTERFRDLLLPPSSQDSEILPFIHSRNYPKLYIDGPFGSPFEESLNYEVSLCVAGGIGVTPFASILNTLLDDWKPYKLRRLYFIWVCRDIQSFQWFADLLCVLHNKFWQENRPDFVNIQLYLSQTDGIQKIIGEKYHTLNSRLFIGRPRWKLLFDEIAKCNRGKTVGVFCCGPSSISKTLHSLSNRNNSYGTKFEYNKESFS |
